Some entries share one result that the patent states for a list of compounds.
Experiments:
Type in all cases: in vivo
Nilaparvata lugens = test: Test Example 1: rice plants treated by root absorption of test solution, Nilaparvata lugens larvae released; details: 55.6 ppm active ingredient, 45 ml absorbed from bottom of cup; 30 first-instar larvae released, counted after 6 days at 25° C.
Culex pipiens pallens = test: Test Example 4: Culex pipiens pallens last-instar larvae in treated water; details: active ingredient concentration 3.5 ppm in water; 20 last-instar larvae; after one day
Musca domestica = test: Test Example 2: filter paper with sucrose bait, Musca domestica female imagoes; details: 500 ppm, 0.7 ml on filter paper; 10 female imagoes; after 24 hours

SMILES	number of the parasitic pests (Nilaparvata lugens) on the rice plants (Nilaparvata lugens)	death rate of the pest (Culex pipiens pallens) [%]	death rate of the pest (Musca domestica) [%]
COC(=O)C(CCC(F)(Cl)C(F)(F)Cl)S(=O)(=O)CCC(F)(F)F (stereo not drawn) [present compound (1), methyl 5,6-dichloro-5,6,6-trifluoro-2-(3,3,3-trifluoropropylsulfonyl)hexanoate]	≤ 3	≥ 90	–
COC(=O)C(CCC(F)(F)C(F)(F)Br)S(=O)(=O)CCC(F)(F)F (stereo not drawn) [present compound (4), methyl 6-bromo-5,5,6,6-tetrafluoro-2-(3,3,3-trifluoropropylsulfonyl)hexanoate]	–	≥ 90	–
NC(=O)C(Cl)(CCC(F)(F)C(F)(F)Br)S(=O)(=O)CCC(F)(F)F (stereo not drawn) [present compound (6), 6-bromo-2-chloro-5,5,6,6-tetrafluoro-2-(3,3,3-trifluoropropylsulfonyl)hexanamide]	≤ 3	≥ 90	≥ 70
COC(=O)C(Cl)(CCC(F)(Cl)C(F)(F)Cl)S(=O)(=O)CCC(F)(F)F (stereo not drawn) [present compound (2), methyl 2,5,6-trichloro-5,6,6-trifluoro-2-(3,3,3-trifluoropropylsulfonyl)hexanoate]	≤ 3	≥ 90	≥ 70
COC(=O)C(Cl)(CCC(F)(F)C(F)(F)Br)S(=O)(=O)CCC(F)(F)F (stereo not drawn) [present compound (5), methyl 6-bromo-2-chloro-5,5,6,6-tetrafluoro-2-(3,3,3-trifluoropropylsulfonyl)hexanoate]	≤ 3	≥ 90	≥ 70
NC(=O)C(Cl)(CCC(F)(Cl)C(F)(F)Cl)S(=O)(=O)CCC(F)(F)F (stereo not drawn) [present compound (3), 2,5,6-trichloro-5,6,6-trifluoro-2-(3,3,3-trifluoropropylsulfonyl)hexanamide]	≤ 3	≥ 90	≥ 70

From patent publication US8158829B2, “Organic sulfur compound and its use for controlling harmful arthropod” (Sumitomo Chemical Company, Limited, priority 2007, dated 2012)
